# The other results are listed elsewhere or left out.
# Compound: Cc1cc(ccc1-c1ccccc1)C(=O)N1CCCN(CC1)C(=O)CCl [compound 10]
# Test: probe-labelled cysteine peptide fold change vs DMSO (competition) (log2 fold change); higher = less target engagement (more negative = stronger competition)
# Conditions: THP-1, incubation time: 4 h
# 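Note: competitive profiling in live THP-1 cells: cysteine peptides tagged with an iodoacetamide desthiobiotin (IA-DTB) probe, intensity after compound treatment relative to DMSO-treated cells.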
target,measurement,setting,value
CTNNBL1_Q8WYA6_370_VLDHAMIGPEGTDNCHK (UniProt Q8WYA6),probe-labelled cysteine peptide fold change,10 µM,-0.00299
same,probe-labelled cysteine peptide fold change,50 µM,-0.134
CTNNB1_P35222_466_AGDREDITEPAICALR (UniProt P35222),probe-labelled cysteine peptide fold change,10 µM,0.16
same,probe-labelled cysteine peptide fold change,50 µM,1.07
CPD_O75976_1140_HLASLYANNHPSMHMGQPSCPNK (UniProt O75976),probe-labelled cysteine peptide fold change,10 µM,0.117
same,probe-labelled cysteine peptide fold change,50 µM,-0.0674
CSTF1_Q05048_415_CIVHSPTNPGFMTCSDDFR (UniProt Q05048),probe-labelled cysteine peptide fold change,10 µM,-0.0745
same,probe-labelled cysteine peptide fold change,50 µM,0.192
CTDP1_Q9Y5B0_700_VLQAQECGHLHVVNPDWLWSCLER (UniProt Q9Y5B0),probe-labelled cysteine peptide fold change,10 µM,-0.181
same,probe-labelled cysteine peptide fold change,50 µM,-0.516
CRIP1_P50238_52_PYCNHPCYAAMFGPK (UniProt P50238),probe-labelled cysteine peptide fold change,10 µM,0.109
same,probe-labelled cysteine peptide fold change,50 µM,-0.292
CPSF1_Q10570_532_SIRPQVVTTFELPGCYDMWTVIAPVRK (UniProt Q10570),probe-labelled cysteine peptide fold change,10 µM,0.343
same,probe-labelled cysteine peptide fold change,50 µM,0.139
CTBP2_P56545_318_DAPNLICTPHTAWYSEQASLEMR (UniProt P56545),probe-labelled cysteine peptide fold change,10 µM,-0.154
same,probe-labelled cysteine peptide fold change,50 µM,0.00764
CPT2_P23786_535_HSAGELQQMMVECSK (UniProt P23786),probe-labelled cysteine peptide fold change,10 µM,-0.179
same,probe-labelled cysteine peptide fold change,50 µM,-0.0903
CRYL1_Q9Y2S2_141_QCIVAHPVNPPYYIPLVELVPHPETAPTTVDR (UniProt Q9Y2S2),probe-labelled cysteine peptide fold change,10 µM,0.0414
same,probe-labelled cysteine peptide fold change,50 µM,0.407
CTCF_P49711_299_CHLCGR (UniProt P49711),probe-labelled cysteine peptide fold change,10 µM,0.168
same,probe-labelled cysteine peptide fold change,50 µM,0.282
CTCF_P49711_557_YHDPNFVPAAFVCSK (UniProt P49711),probe-labelled cysteine peptide fold change,10 µM,-0.0109
same,probe-labelled cysteine peptide fold change,50 µM,0.136
CRIP1_P50238_56_PYCNHPCYAAMFGPK (UniProt P50238),probe-labelled cysteine peptide fold change,10 µM,0.123
same,probe-labelled cysteine peptide fold change,50 µM,-0.154
CRTAP_O75718_84_DSEAFCHR (UniProt O75718),probe-labelled cysteine peptide fold change,10 µM,-0.0976
same,probe-labelled cysteine peptide fold change,50 µM,-0.0194
CSDE1_O75534_53_LFFHCSQYNGNLQDLK (UniProt O75534),probe-labelled cysteine peptide fold change,10 µM,0.259
same,probe-labelled cysteine peptide fold change,50 µM,0.096
CRYBG1_Q9Y4K1_503_GCVLPVSR (UniProt Q9Y4K1),probe-labelled cysteine peptide fold change,10 µM,-0.327
same,probe-labelled cysteine peptide fold change,50 µM,-0.294
COX17_Q14061_45_GEEHCGHLIEAHK (UniProt Q14061),probe-labelled cysteine peptide fold change,10 µM,0.354
same,probe-labelled cysteine peptide fold change,50 µM,0.15
CTCF_P49711_155_EGLAESEPMICHTLPLPEGFQVVK (UniProt P49711),probe-labelled cysteine peptide fold change,10 µM,-0.325
same,probe-labelled cysteine peptide fold change,50 µM,-0.277
COX6B1_P14854_54_GGDISVCEWYQR (UniProt P14854),probe-labelled cysteine peptide fold change,10 µM,-0.526
same,probe-labelled cysteine peptide fold change,50 µM,-0.0457
CRBN_Q96SW2_205_CQIFPSKPVSR (UniProt Q96SW2),probe-labelled cysteine peptide fold change,10 µM,0.249
same,probe-labelled cysteine peptide fold change,50 µM,0.15
CSTF1_Q05048_296_CITTFEK (UniProt Q05048),probe-labelled cysteine peptide fold change,10 µM,0.116
same,probe-labelled cysteine peptide fold change,50 µM,0.181
CSDE1_O75534_464_EKEAEDGIIAYDDCGVK (UniProt O75534),probe-labelled cysteine peptide fold change,10 µM,-0.315
same,probe-labelled cysteine peptide fold change,50 µM,-0.691
CRYBG1_Q9Y4K1_581+609_EVQLPTCHSNEPEVVSVASCAPPQEEVLGNEHSHCTAELAAK (UniProt Q9Y4K1),probe-labelled cysteine peptide fold change,10 µM,-0.034
same,probe-labelled cysteine peptide fold change,50 µM,-0.822
CTBP2_P56545_44_DCTVEMPILK (UniProt P56545),probe-labelled cysteine peptide fold change,10 µM,-0.105
same,probe-labelled cysteine peptide fold change,50 µM,0.0492
CORO1C_Q9ULV4_456_DTICNQDER (UniProt Q9ULV4),probe-labelled cysteine peptide fold change,10 µM,0.113
same,probe-labelled cysteine peptide fold change,50 µM,0.144
CRYZ_Q08257_145_ALIHSACVK (UniProt Q08257),probe-labelled cysteine peptide fold change,10 µM,0.0366
same,probe-labelled cysteine peptide fold change,50 µM,0.247
CRELD1_Q96HD1_229_CSGPEESNCLQCK (UniProt Q96HD1),probe-labelled cysteine peptide fold change,10 µM,0.126
same,probe-labelled cysteine peptide fold change,50 µM,0.0461
CORO1B_Q9BR76_345_CEPIVMTVPR (UniProt Q9BR76),probe-labelled cysteine peptide fold change,10 µM,0.0227
same,probe-labelled cysteine peptide fold change,50 µM,-0.0517
CROT_Q9UKG9_166_MLFSTCK (UniProt Q9UKG9),probe-labelled cysteine peptide fold change,10 µM,-0.0518
same,probe-labelled cysteine peptide fold change,50 µM,-0.0687
CPS1_P31327_1256_GNDVLVIECNLR (UniProt P31327),probe-labelled cysteine peptide fold change,10 µM,-0.11
same,probe-labelled cysteine peptide fold change,50 µM,0.0627
CSDE1_O75534_680_ATVECVK (UniProt O75534),probe-labelled cysteine peptide fold change,10 µM,0.0724
same,probe-labelled cysteine peptide fold change,50 µM,-0.0953
CORO2A_Q92828_474_TWLTNGFDVFECPPPK (UniProt Q92828),probe-labelled cysteine peptide fold change,10 µM,0.177
same,probe-labelled cysteine peptide fold change,50 µM,0.219
CRELD2_Q6UXH1_288+294_EHGQCADVDECSLAEK (UniProt Q6UXH1),probe-labelled cysteine peptide fold change,10 µM,-0.429
same,probe-labelled cysteine peptide fold change,50 µM,-0.479
CRABP1_P29762_96_IHCTQTLLEGDGPK (UniProt P29762),probe-labelled cysteine peptide fold change,10 µM,-0.0105
same,probe-labelled cysteine peptide fold change,50 µM,-0.112
CST3_P01034_123_AFCSFQIYAVPWQGTMTLSK (UniProt P01034),probe-labelled cysteine peptide fold change,10 µM,-0.584
same,probe-labelled cysteine peptide fold change,50 µM,-0.359
CORO6_Q6QEF8_344_KCEPIIMTVPR (UniProt Q6QEF8),probe-labelled cysteine peptide fold change,10 µM,0.0964
same,probe-labelled cysteine peptide fold change,50 µM,-0.129
CPM_P14384_341_KHICPYR (UniProt P14384),probe-labelled cysteine peptide fold change,10 µM,-0.0518
same,probe-labelled cysteine peptide fold change,50 µM,-0.455
CTBP1_Q13363_312_DAPNLICTPHAAWYSEQASIEMR (UniProt Q13363),probe-labelled cysteine peptide fold change,10 µM,-0.0203
same,probe-labelled cysteine peptide fold change,50 µM,-0.149
CSNK2A1_P68400_147_ALDYCHSMGIMHR (UniProt P68400),probe-labelled cysteine peptide fold change,10 µM,0.22
same,probe-labelled cysteine peptide fold change,50 µM,0.316

# Exported with tabs: entries from further up
target	measurement	setting	value
CTNNB1_P35222_466_AGDREDITEPAICALR (UniProt P35222)	probe-labelled cysteine peptide fold change	50 µM	1.07
CPD_O75976_1140_HLASLYANNHPSMHMGQPSCPNK (UniProt O75976)	probe-labelled cysteine peptide fold change	10 µM	0.117
CSTF1_Q05048_415_CIVHSPTNPGFMTCSDDFR (UniProt Q05048)	probe-labelled cysteine peptide fold change	50 µM	0.192
CTDP1_Q9Y5B0_700_VLQAQECGHLHVVNPDWLWSCLER (UniProt Q9Y5B0)	probe-labelled cysteine peptide fold change	50 µM	-0.516
CTBP2_P56545_318_DAPNLICTPHTAWYSEQASLEMR (UniProt P56545)	probe-labelled cysteine peptide fold change	10 µM	-0.154
CPT2_P23786_535_HSAGELQQMMVECSK (UniProt P23786)	probe-labelled cysteine peptide fold change	10 µM	-0.179
CSDE1_O75534_53_LFFHCSQYNGNLQDLK (UniProt O75534)	probe-labelled cysteine peptide fold change	10 µM	0.259
CRYBG1_Q9Y4K1_503_GCVLPVSR (UniProt Q9Y4K1)	probe-labelled cysteine peptide fold change	50 µM	-0.294
COX6B1_P14854_54_GGDISVCEWYQR (UniProt P14854)	probe-labelled cysteine peptide fold change	50 µM	-0.0457
CRBN_Q96SW2_205_CQIFPSKPVSR (UniProt Q96SW2)	probe-labelled cysteine peptide fold change	10 µM	0.249
CTBP2_P56545_44_DCTVEMPILK (UniProt P56545)	probe-labelled cysteine peptide fold change	10 µM	-0.105
CORO1C_Q9ULV4_456_DTICNQDER (UniProt Q9ULV4)	probe-labelled cysteine peptide fold change	10 µM	0.113
CRYZ_Q08257_145_ALIHSACVK (UniProt Q08257)	probe-labelled cysteine peptide fold change	50 µM	0.247
CORO1B_Q9BR76_345_CEPIVMTVPR (UniProt Q9BR76)	probe-labelled cysteine peptide fold change	50 µM	-0.0517
CROT_Q9UKG9_166_MLFSTCK (UniProt Q9UKG9)	probe-labelled cysteine peptide fold change	10 µM	-0.0518
CPS1_P31327_1256_GNDVLVIECNLR (UniProt P31327)	probe-labelled cysteine peptide fold change	50 µM	0.0627
CSDE1_O75534_680_ATVECVK (UniProt O75534)	probe-labelled cysteine peptide fold change	50 µM	-0.0953
CRELD2_Q6UXH1_288+294_EHGQCADVDECSLAEK (UniProt Q6UXH1)	probe-labelled cysteine peptide fold change	50 µM	-0.479
CST3_P01034_123_AFCSFQIYAVPWQGTMTLSK (UniProt P01034)	probe-labelled cysteine peptide fold change	50 µM	-0.359
CORO6_Q6QEF8_344_KCEPIIMTVPR (UniProt Q6QEF8)	probe-labelled cysteine peptide fold change	50 µM	-0.129

# — the supplement of paper PMC12067093, “Discovery and optimisation of a covalent ligand for TRIM25 and its application to targeted protein ubiquitination” (Chemical Science, 2025)
